Consider four substances from paper doi:10.1101/2023.02.27.530350 (bioRxiv, 2023).

Chains of the proteins cited; added tags and fusions are not shown. Lines headed by an entry give the natural chain unless they say otherwise; changes in a name come on top.
UniProt Q2FKN8, whole entry: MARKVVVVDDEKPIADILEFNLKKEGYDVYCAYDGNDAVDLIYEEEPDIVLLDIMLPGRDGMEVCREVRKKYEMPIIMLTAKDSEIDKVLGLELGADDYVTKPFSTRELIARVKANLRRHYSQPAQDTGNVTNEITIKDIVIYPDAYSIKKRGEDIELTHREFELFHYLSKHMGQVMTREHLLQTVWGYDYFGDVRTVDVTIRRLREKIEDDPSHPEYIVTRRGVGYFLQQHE

What all share (assay): split reporter
Assay [1] addresses WalK_(G223D)-LgBIT (Staphylococcus aureus) (UniProt Q2FKN7).
In assay [2] the target is T1, WalK-LgBIT (native WalK, sensor histidine kinase) (Staphylococcus aureus) (UniProt Q2FKN7).
T1 sequence: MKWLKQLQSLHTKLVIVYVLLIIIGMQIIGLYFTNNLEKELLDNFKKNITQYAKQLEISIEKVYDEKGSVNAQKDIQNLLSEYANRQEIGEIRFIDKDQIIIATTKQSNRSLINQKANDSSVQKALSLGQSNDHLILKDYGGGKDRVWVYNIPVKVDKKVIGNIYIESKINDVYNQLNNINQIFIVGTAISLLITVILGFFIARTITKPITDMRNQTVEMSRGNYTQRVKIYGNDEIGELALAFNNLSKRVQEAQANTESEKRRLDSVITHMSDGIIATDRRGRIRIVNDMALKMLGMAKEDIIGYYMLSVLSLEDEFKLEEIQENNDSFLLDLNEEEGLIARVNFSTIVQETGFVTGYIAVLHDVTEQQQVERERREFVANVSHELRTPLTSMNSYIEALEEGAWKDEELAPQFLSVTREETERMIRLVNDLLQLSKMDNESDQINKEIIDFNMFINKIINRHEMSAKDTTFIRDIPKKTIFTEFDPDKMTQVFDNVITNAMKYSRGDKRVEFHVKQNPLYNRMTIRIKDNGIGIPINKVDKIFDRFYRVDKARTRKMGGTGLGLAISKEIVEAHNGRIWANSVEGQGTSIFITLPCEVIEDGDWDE

The target of assay [3] is WalK_(G223D)-LgBIT (Staphylococcus aureus) (UniProt Q2FKN7). The source holds these as a separate data set.
For assay [4], the target named is WalK_(T389A)-LgBIT (Staphylococcus aureus) (UniProt Q2FKN7).
Assay [5] concerns the target WalK_(Y32C)-LgBIT (Staphylococcus aureus) (UniProt Q2FKN7).
Assay [6] addresses T1, WalK-LgBIT (native WalK, sensor histidine kinase) (Staphylococcus aureus). This is another data set of the same source.

Like-named read-outs stand apart in the source and are kept apart here. No constants are given. Whether binding was seen depends on the method and setting. In cells and extracts the contact can be indirect. Some results given as binding are weak or reduced against the parent protein; the word gives no strength. For part of these data: Tags and fused reporters may be left off the sequences shown.

Take “WalR-SmBIT (native WalR, DNA binding response regulator) (from UniProt Q2FKN8 1-233)”: the binding entry in assay [1], in assay [2], in assay [3], in assay [4] and in assay [5] was “binds” in each case.

On to “WalR_(D53A)-SmBIT (from UniProt Q2FKN8 1-233)”, for which the binding result in assay [6] and in assay [2] was “binds” each time.

With “WalR_(D53E)-SmBIT (from UniProt Q2FKN8 1-233)”, the binding result in assay [2] was “binds”.

As for “WalR_(T101A)-SmBIT (from UniProt Q2FKN8 1-233)”, in assay [6], the binding result is listed as “binds”.
